Assay results reported in article doi:10.1101/2022.01.05.475124.
No constants are given. Whether binding was seen depends on the method and setting. In cells and extracts the contact can be indirect. Some entries that bind do so weakly or less than the wild type. For some assays here: Where a sequence is shown, tags or fusion partners need not be part of it. One block for each binder: values may come before it.

Key:
[1] = biological target: T1, gp130-Flag (gp130 FLAG plasmid), in adult human articular chondrocytes, P40189; assay: co-IP; conditions: remark: other sources report otherwise
T1 chain: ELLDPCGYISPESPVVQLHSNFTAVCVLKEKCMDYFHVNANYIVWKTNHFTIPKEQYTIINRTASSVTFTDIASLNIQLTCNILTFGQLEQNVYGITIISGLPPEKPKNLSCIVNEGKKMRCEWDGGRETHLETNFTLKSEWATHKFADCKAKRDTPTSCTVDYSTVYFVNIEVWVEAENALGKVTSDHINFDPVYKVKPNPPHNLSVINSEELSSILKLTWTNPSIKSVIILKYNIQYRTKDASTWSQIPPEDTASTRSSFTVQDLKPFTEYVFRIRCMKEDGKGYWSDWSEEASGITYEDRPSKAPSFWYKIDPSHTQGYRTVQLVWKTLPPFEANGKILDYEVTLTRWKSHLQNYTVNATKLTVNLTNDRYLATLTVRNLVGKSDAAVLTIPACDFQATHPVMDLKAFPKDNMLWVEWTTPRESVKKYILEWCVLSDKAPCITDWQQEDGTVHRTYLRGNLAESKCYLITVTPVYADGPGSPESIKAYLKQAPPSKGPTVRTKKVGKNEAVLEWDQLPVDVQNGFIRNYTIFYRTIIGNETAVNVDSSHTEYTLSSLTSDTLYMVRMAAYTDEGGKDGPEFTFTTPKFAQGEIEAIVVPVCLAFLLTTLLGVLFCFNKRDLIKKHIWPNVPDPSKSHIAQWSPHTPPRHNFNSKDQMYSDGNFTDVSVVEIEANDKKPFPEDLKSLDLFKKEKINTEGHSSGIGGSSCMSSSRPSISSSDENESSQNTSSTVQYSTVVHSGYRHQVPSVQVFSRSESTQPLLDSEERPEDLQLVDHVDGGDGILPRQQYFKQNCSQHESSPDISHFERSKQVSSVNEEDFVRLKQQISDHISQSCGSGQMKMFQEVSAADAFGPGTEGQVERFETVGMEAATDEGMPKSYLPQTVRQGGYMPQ

[2] = biological target: gp130-Flag (gp130 FLAG plasmid), in adult human articular chondrocytes (UniProt P40189); assay: co-IP

binding [1]: binds
B1: OSMR (oncostatin M receptor), Q99650 28-979 (receptor)
chain: ERLPLTPVSLKVSTNSTRQSLHLQWTVHNLPYHQELKMVFQIQISRIETSNVIWVGNYSTTVKWNQVLHWSWESELPLECATHFVRIKSLVDDAKFPEPNFWSNWSSWEEVSVQDSTGQDILFVFPKDKLVEEGTNVTICYVSRNIQNNVSCYLEGKQIHGEQLDPHVTAFNLNSVPFIRNKGTNIYCEASQGNVSEGMKGIVLFVSKVLEEPKDFSCETEDFKTLHCTWDPGTDTALGWSKQPSQSYTLFESFSGEKKLCTHKNWCNWQITQDSQETYNFTLIAENYLRKRSVNILFNLTHRVYLMNPFSVNFENVNATNAIMTWKVHSIRNNFTYLCQIELHGEGKMMQYNVSIKVNGEYFLSELEPATEYMARVRCADASHFWKWSEWSGQNFTTLEAAPSEAPDVWRIVSLEPGNHTVTLFWKPLSKLHANGKILFYNVVVENLDKPSSSELHSIPAPANSTKLILDRCSYQICVIANNSVGASPASVIVISADPENKEVEEERIAGTEGGFSLSWKPQPGDVIGYVVDWCDHTQDVLGDFQWKNVGPNTTSTVISTDAFRPGVRYDFRIYGLSTKRIACLLEKKTGYSQELAPSDNPHVLVDTLTSHSFTLSWKDYSTESQPGFIQGYHVYLKSKARQCHPRFEKAVLSDGSECCKYKIDNPEEKALIVDNLKPESFYEFFITPFTSAGEGPSATFTKVTTPDEHSSMLIHILLPMVFCVLLIMVMCYLKSQWIKETCYPDIPDPYKSSILSLIKFKENPHLIIMNVSDCIPDAIEVVSKPEGTKIQFLGTRKSLTETELTKPNYLYLLPTEKNHSGPGPCICFENLTYNQAASDSGSCGHVPVSPKAPSMLGLMTSPENVLKALEKNYMNSLGEIPAGETSLNYVSQLASPMFGDKDSLPTNPVEAPHCSEYKMQMAVSLRLALPPPTENSSLSSITLLDPGEHYC

binding [2]: binds
B2: LIFR (leukemia inhibitory factor receptor) (receptor, UniProt P42702 45-1097)
chain: QKKGAPHDLKCVTNNLQVWNCSWKAPSGTGRGTDYEVCIENRSRSCYQLEKTSIKIPALSHGDYEITINSLHDFGSSTSKFTLNEQNVSLIPDTPEILNLSADFSTSTLYLKWNDRGSVFPHRSNVIWEIKVLRKESMELVKLVTHNTTLNGKDTLHHWSWASDMPLECAIHFVEIRCYIDNLHFSGLEEWSDWSPVKNISWIPDSQTKVFPQDKVILVGSDITFCCVSQEKVLSALIGHTNCPLIHLDGENVAIKIRNISVSASSGTNVVFTTEDNIFGTVIFAGYPPDTPQQLNCETHDLKEIICSWNPGRVTALVGPRATSYTLVESFSGKYVRLKRAEAPTNESYQLLFQMLPNQEIYNFTLNAHNPLGRSQSTILVNITEKVYPHTPTSFKVKDINSTAVKLSWHLPGNFAKINFLCEIEIKKSNSVQEQRNVTIKGVENSSYLVALDKLNPYTLYTFRIRCSTETFWKWSKWSNKKQHLTTEASPSKGPDTWREWSSDGKNLIIYWKPLPINEANGKILSYNVSCSSDEETQSLSEIPDPQHKAEIRLDKNDYIISVVAKNSVGSSPPSKIASMEIPNDDLKIEQVVGMGKGILLTWHYDPNMTCDYVIKWCNSSRSEPCLMDWRKVPSNSTETVIESDEFRPGIRYNFFLYGCRNQGYQLLRSMIGYIEELAPIVAPNFTVEDTSADSILVKWEDIPVEELRGFLRGYLFYFGKGERDTSKMRVLESGRSDIKVKNITDISQKTLRIADLQGKTSYHLVLRAYTDGGVGPEKSMYVVTKENSVGLIIAILIPVAVAVIVGVVTSILCYRKREWIKETFYPDIPNPENCKALQFQKSVCEGSSALKTLEMNPCTPNNVEVLETRSAFPKIEDTEIISPVAERPEDRSDAEPENHVVVSYCPPIIEEEIPNPAADEAGGTAQVIYIDVQSMYQPQAKPEEEQENDPVGGAGYKPQMHLPINSTVEDIAAEEDLDKTAGYRPQANVNTWNLVSPDSPRSIDSNSEIVSFGSPCSINSRQFLIPPKDEDSPKSNGGGWSFTNFFQNKPND
